Data as given in PubChem BioAssay AID1508588 (Peter MacCallum Cancer Centre, 2020).
Screen: 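Which gene losses make BRAF-mutant melanoma cells more responsive to vemurafenib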 (primary screen). Cell system: human WM266.4 melanoma cells (BRAF V600 mutant). Reagent: siRNA pool against human genes, 40 nM. Time to read-out: 96 h from transfection to read-out. Challenge: vemurafenib 300 nM (about IC25), added 48 h after transfection, for 48 h; comparison arm got DMSO vehicle only. Measurement: 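Ratios to non-targeting siRNA for cell gain, counted as DAPI nuclei after minus before drug and averaged over two replicates, and for absorbance-read medium lactate per cell; both binned into fold-change classes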. Reading the numbers: cell gain with vemurafenib: higher = more cell gain than with non-targeting siRNA; lactate per cell with vemurafenib: higher = more lactate made per cell. Hit rule: 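Enhancement is called by pairing each knock-down's vehicle-arm and drug-arm fold-change classes for viability or glycolysis; which class combinations qualify is not given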. Meaning of the calls: active = enhances vemurafenib effect; inactive = no enhancement seen.
In all, the deposit lists about 18,000 reagents; this is a random part of them. 790 of them (4.4%) were called active. 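Calls rest on a combination of fold-change classes in drug and vehicle arms, not all shown here.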 A number with no mark means an inactive call.

no.	gene	cell gain with vemurafenib	lactate per cell with vemurafenib
1	ZNF579 (zinc finger protein 579)	0.89	1.33
2	AP1S1 (adaptor related protein complex 1 subunit sigma 1)	0.69	1.27
3	DPH7 (diphthamide biosynthesis 7)	0.43	0.88
4	FSCN3 (fascin actin-bundling protein 3)	0.39	1.23
5	PIGB (phosphatidylinositol glycan anchor biosynthesis class B)	0.68	0.56
6	ZNF830 (zinc finger protein 830)	0.26	1.4
7	GINM1 (glycosylated integral membrane protein 1)	0.44	0.3
8	FANCF (FA complementation group F)	0.76	0.83
9	PTPA (protein phosphatase 2 phosphatase activator)	0.88	1.38
10	LRRC27 (leucine rich repeat containing 27)	1.01	0.68
11	CALCOCO1 (calcium binding and coiled-coil domain 1)	0.53	0.67
12	LYPD6B (LY6/PLAUR domain containing 6B)	0.91	0.8
13	LAD1 (ladinin 1)	0.84	0.92
14	SLC2A10	0.47	0.97
15	ENC1 (ectodermal-neural cortex 1)	0.7	0.62
16	RPP30 (ribonuclease P/MRP subunit p30)	0.38	1.4
17	SHC2 (SHC adaptor protein 2)	0.77	0.78
18	EPPIN (epididymal peptidase inhibitor)	0.41 (active)	0.43
19	IRAK4 (interleukin 1 receptor associated kinase 4)	0.62	0.55
20	DUSP29 (dual specificity phosphatase 29)	0.69	0.83
21	PSME1 (proteasome activator subunit 1)	0.83	1.1
22	COQ8A (coenzyme Q8A)	0.22	0.31
23	SNRPN (small nuclear ribonucleoprotein polypeptide N)	0.82	0.64
24	ADTRP (androgen dependent TFPI regulating protein)	0.38 (active)	0.15
25	TMEM200A (transmembrane protein 200A)	0.37	0.72
26	CCDC87 (coiled-coil domain containing 87)	0.66	0.67
27	RIPOR3 (RIPOR family member 3)	1.17	0.76
28	PDAP1 (PDGFA associated protein 1)	0.4	2.26
29	PTS (6-pyruvoyltetrahydropterin synthase)	0.91	0.27
30	IFITM5 (interferon induced transmembrane protein 5)	0.62	1.2
31	WHAMM	0.67	0.97
32	SCML4 (Scm polycomb group protein like 4)	0.24	1.14
33	EXOC3L2 (exocyst complex component 3 like 2)	0.63	1.21
34	SPIDR (scaffold protein involved in DNA repair)	0.6	0.66
35	BST2 (bone marrow stromal cell antigen 2)	0.3	2.36
36	ARC (activity regulated cytoskeleton associated protein)	0.1	1.04
37	ULBP1 (UL16 binding protein 1)	0.22	0.4
38	ASPSCR1 (ASPSCR1 tether for SLC2A4, UBX domain containing)	0.85	0.5
39	PLA2G4C (phospholipase A2 group IVC)	0.68	0.93
40	FOXB2 (forkhead box B2)	0.48	0.86
41	TLR10 (toll like receptor 10)	0.38	1.08
42	AJUBA (ajuba LIM protein)	1.07	0.38
43	AIRE (autoimmune regulator)	0.6	1.23
44	GML (glycosylphosphatidylinositol anchored molecule like)	0.09	1.47
45	OR11H1 (olfactory receptor family 11 subfamily H member 1)	0.42	1.46
46	SLC35H1	0.55	1.2
47	KIR2DL5B	0.65	1.01
48	DUSP12 (dual specificity phosphatase 12)	0.77	0.28
49	NPM1 (nucleophosmin 1)	0.71	0.71
50	RBM4B (RNA binding motif protein 4B)	0.02	0.8
51	MMP3 (matrix metallopeptidase 3)	0.81 (active)	0.14
52	UVRAG (UV radiation resistance associated)	0.71	1.08
53	MIOS (meiosis regulator for oocyte development)	0.43	1.27
54	RAB9A (RAB9A, member RAS oncogene family)	0.47	0.63
55	ABHD17A (abhydrolase domain containing 17A, depalmitoylase)	0.71	0.94
56	STK16 (serine/threonine kinase 16)	0.66	1.17
57	BAG3 (BAG cochaperone 3)	0.27	0.38
58	TMED9 (transmembrane p24 trafficking protein 9)	0.7 (active)	0.48
59	ANO6 (anoctamin 6)	0.65	0.54
60	CDC14B (cell division cycle 14B)	0.87	1.47
61	G3BP2 (G3BP stress granule assembly factor 2)	0.48	0.8
62	BCAT1 (branched chain amino acid transaminase 1)	0.82	1.04
63	CEACAM7 (CEA cell adhesion molecule 7)	0.72	1.01
64	INO80D (INO80 complex subunit D)	0.78	0.42
65	OR11H12 (olfactory receptor family 11 subfamily H member 12)	0.34	0.85
66	TRIM39 (tripartite motif containing 39)	0.82	0.9
67	FAM3C (FAM3 metabolism regulating signaling molecule C)	0.74 (active)	0.7
68	NAPG (NSF attachment protein gamma)	0.56	0.71
69	ATG2B (autophagy related 2B)	0.8	0.66
70	RAD51D (RAD51 paralog D)	0.65	1.28
71	SAMD4A (sterile alpha motif domain containing 4A)	0.94	0.58
72	YEATS4 (YEATS domain containing 4)	0.42	1.6
73	MRPL27 (mitochondrial ribosomal protein L27)	0.81	1.1
74	ADAMTS5 (ADAM metallopeptidase with thrombospondin type 1 motif 5)	0.65	0.88
75	MUTYH (mutY DNA glycosylase)	0.99	1.25
76	HTR1D (5-hydroxytryptamine receptor 1D)	0.43	0.72
77	HTR5A (5-hydroxytryptamine receptor 5A)	0.56 (active)	0.44
78	GARS1 (glycyl-tRNA synthetase 1)	0.29	1.31
79	LATS2 (large tumor suppressor kinase 2)	0.53	1.29
80	KCNK1 (potassium two pore domain channel subfamily K member 1)	0.39	0.93
81	KIF20B (kinesin family member 20B)	0.18	1.2
82	ZW10 (zw10 kinetochore protein)	0.56 (active)	0.45
83	MRPS33 (mitochondrial ribosomal protein S33)	1.35	1.25
84	ACVR1 (activin A receptor type 1)	0.75	0.94

Look-ups from the entries so far.
Result of ADAMTS5 (ADAM metallopeptidase with thrombospondin type 1 motif 5) in “cell gain with vemurafenib”: 0.65
LATS2 (large tumor suppressor kinase 2), cell gain with vemurafenib = 0.53
Entry of LAD1 (ladinin 1) under “cell gain with vemurafenib”: 0.84
BST2 (bone marrow stromal cell antigen 2), cell gain with vemurafenib → 0.3
For “lactate per cell with vemurafenib”, YEATS4 (YEATS domain containing 4) is entered as 1.6
Under “lactate per cell with vemurafenib”, WHAMM shows 0.97
